Reference: the supplement of paper PMC10849652
Some of the results follow.

Chains of the proteins cited; added tags and fusions are not shown. Lines headed by an entry give the natural chain unless they say otherwise; changes in a name come on top.
UniProt P56134: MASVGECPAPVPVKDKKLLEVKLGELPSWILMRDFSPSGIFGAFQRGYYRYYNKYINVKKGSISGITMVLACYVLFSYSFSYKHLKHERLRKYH
UniProt P18859: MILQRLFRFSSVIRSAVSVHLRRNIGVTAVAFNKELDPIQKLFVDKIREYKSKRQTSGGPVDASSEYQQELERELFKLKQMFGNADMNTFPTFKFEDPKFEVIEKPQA
UniProt P36405: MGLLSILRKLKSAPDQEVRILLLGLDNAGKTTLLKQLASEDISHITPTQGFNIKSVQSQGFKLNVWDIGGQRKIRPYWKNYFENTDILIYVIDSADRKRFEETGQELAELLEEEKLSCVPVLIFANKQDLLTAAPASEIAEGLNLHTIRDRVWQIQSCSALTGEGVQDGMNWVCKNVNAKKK
UniProt Q9Y294, whole entry, looked up: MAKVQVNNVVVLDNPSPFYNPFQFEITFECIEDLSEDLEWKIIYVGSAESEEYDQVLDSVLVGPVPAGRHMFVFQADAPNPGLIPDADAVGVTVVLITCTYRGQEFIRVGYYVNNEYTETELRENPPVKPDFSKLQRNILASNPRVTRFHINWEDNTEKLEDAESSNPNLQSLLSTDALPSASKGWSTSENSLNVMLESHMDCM
UniProt O95352: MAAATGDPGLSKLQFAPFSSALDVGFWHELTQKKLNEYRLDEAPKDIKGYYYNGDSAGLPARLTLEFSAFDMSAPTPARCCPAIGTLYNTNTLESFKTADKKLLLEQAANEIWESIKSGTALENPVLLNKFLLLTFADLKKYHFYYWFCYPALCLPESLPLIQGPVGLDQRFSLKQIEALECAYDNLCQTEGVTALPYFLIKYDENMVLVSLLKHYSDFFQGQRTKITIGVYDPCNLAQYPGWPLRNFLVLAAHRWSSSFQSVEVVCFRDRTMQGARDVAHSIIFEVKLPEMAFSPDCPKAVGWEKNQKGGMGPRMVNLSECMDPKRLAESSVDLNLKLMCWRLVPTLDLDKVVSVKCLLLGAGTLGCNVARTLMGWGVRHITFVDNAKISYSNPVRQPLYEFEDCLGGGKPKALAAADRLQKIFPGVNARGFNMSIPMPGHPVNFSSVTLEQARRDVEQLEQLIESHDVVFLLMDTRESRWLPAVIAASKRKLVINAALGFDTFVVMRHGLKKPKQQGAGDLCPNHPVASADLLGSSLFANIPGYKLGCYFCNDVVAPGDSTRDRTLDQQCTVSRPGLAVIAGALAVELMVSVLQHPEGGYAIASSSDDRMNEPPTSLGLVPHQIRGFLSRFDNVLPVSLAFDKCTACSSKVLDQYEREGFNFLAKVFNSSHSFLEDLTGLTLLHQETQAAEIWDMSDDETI
UniProt Q13510, whole entry, looked up: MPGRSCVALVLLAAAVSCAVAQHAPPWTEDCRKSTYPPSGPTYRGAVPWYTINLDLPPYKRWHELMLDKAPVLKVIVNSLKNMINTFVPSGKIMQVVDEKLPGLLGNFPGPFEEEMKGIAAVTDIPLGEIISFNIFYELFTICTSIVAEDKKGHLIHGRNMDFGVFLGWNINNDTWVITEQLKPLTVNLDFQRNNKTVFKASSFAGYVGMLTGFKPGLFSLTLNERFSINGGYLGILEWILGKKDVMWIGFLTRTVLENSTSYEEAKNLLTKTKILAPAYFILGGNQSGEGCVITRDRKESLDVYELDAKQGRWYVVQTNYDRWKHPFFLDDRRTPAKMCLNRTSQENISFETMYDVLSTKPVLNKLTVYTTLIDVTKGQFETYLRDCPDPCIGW
UniProt P54707, whole entry, looked up: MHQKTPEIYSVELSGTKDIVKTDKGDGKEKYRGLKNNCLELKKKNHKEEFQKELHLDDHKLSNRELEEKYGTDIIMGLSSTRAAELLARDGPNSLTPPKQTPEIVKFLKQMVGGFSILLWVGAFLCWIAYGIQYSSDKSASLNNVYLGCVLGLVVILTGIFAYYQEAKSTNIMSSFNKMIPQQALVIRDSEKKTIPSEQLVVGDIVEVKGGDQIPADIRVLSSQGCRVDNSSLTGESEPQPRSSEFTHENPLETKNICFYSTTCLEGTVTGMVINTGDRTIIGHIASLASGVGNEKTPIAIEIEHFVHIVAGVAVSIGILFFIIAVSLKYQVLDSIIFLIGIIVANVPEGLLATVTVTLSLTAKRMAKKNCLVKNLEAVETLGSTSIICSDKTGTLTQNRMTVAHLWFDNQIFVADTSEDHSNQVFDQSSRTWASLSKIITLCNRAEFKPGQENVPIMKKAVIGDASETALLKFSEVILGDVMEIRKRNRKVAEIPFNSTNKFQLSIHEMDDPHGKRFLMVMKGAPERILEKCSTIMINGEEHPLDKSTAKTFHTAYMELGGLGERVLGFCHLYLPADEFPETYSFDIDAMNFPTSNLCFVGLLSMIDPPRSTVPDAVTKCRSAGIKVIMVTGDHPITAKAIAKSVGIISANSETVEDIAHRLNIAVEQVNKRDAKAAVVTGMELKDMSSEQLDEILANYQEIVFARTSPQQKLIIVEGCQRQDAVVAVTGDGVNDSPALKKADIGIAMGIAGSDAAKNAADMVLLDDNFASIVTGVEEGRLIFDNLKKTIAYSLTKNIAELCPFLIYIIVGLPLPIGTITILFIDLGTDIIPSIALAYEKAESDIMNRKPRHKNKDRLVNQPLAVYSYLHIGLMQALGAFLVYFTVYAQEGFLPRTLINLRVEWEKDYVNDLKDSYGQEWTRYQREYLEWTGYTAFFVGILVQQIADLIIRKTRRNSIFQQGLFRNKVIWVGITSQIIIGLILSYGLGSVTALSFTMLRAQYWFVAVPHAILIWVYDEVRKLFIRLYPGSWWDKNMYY
UniProt Q13315: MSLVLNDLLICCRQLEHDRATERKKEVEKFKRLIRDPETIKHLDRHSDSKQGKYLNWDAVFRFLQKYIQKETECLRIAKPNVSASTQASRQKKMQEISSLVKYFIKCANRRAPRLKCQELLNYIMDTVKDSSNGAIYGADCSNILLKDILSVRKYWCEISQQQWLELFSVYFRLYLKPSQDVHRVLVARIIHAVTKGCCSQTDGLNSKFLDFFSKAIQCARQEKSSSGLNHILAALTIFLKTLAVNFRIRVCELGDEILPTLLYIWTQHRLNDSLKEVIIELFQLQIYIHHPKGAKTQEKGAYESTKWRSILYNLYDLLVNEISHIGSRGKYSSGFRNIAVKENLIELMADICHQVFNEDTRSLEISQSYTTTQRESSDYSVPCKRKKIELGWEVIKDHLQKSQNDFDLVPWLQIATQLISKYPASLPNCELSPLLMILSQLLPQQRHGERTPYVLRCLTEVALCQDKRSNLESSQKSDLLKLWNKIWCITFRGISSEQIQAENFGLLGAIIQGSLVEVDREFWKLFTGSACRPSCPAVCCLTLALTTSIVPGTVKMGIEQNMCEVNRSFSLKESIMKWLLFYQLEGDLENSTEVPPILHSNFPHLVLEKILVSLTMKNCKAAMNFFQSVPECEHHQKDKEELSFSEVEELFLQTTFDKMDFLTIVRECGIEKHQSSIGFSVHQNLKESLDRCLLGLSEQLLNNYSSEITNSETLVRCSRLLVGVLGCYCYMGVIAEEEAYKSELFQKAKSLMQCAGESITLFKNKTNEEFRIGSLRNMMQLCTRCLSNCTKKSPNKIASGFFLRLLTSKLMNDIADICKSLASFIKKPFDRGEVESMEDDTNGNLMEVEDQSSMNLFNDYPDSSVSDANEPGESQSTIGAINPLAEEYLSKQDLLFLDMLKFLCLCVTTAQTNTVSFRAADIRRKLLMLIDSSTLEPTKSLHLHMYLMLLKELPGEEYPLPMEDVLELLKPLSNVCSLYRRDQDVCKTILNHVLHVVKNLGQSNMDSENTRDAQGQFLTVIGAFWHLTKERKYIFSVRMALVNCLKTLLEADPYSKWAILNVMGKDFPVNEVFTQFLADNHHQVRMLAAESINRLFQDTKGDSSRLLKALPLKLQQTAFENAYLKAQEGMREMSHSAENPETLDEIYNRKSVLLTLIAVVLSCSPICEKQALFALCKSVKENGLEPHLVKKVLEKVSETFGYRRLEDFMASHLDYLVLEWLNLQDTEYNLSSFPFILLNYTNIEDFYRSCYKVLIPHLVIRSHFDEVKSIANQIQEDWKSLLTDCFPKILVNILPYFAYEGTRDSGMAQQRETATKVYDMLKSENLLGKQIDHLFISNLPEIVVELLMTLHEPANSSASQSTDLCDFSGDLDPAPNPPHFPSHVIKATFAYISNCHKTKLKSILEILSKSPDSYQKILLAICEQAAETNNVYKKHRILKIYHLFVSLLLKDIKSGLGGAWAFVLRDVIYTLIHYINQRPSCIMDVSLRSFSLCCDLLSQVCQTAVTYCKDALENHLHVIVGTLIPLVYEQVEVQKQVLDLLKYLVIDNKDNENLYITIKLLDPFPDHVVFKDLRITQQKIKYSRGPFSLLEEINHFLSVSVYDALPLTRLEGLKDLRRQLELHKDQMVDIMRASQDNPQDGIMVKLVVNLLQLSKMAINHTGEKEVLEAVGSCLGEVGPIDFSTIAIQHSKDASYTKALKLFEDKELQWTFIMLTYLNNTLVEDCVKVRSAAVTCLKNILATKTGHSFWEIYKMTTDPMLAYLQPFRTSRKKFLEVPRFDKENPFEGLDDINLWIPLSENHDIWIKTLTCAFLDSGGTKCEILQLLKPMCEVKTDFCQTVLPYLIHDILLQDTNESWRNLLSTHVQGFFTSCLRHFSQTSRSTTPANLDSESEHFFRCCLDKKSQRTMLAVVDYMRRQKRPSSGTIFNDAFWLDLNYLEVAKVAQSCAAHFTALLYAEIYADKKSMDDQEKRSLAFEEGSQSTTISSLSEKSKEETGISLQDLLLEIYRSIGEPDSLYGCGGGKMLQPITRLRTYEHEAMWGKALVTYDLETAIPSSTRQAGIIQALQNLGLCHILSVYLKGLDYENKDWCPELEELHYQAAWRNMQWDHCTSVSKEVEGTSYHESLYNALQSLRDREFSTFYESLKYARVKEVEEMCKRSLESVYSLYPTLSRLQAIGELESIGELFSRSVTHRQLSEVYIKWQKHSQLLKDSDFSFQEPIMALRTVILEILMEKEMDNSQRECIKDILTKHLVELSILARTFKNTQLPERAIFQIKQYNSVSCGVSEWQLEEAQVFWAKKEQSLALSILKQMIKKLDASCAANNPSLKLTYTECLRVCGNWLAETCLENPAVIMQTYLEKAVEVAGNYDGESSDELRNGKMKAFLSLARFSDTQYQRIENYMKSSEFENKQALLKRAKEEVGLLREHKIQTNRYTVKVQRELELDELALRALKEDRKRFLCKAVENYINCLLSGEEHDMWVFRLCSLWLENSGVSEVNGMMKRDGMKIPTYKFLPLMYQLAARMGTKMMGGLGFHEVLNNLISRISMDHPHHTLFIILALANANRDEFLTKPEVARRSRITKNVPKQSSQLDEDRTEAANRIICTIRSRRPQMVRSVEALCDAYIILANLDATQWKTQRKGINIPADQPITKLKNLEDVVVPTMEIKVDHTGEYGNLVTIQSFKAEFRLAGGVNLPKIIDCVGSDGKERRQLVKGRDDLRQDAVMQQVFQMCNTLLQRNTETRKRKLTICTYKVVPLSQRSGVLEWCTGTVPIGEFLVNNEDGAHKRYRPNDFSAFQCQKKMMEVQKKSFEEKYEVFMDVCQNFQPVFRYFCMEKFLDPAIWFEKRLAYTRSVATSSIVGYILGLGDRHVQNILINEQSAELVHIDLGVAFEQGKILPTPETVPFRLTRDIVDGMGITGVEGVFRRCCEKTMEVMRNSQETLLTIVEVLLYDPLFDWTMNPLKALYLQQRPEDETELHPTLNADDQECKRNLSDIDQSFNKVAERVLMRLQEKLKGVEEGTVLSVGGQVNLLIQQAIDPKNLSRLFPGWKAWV
UniProt Q12797: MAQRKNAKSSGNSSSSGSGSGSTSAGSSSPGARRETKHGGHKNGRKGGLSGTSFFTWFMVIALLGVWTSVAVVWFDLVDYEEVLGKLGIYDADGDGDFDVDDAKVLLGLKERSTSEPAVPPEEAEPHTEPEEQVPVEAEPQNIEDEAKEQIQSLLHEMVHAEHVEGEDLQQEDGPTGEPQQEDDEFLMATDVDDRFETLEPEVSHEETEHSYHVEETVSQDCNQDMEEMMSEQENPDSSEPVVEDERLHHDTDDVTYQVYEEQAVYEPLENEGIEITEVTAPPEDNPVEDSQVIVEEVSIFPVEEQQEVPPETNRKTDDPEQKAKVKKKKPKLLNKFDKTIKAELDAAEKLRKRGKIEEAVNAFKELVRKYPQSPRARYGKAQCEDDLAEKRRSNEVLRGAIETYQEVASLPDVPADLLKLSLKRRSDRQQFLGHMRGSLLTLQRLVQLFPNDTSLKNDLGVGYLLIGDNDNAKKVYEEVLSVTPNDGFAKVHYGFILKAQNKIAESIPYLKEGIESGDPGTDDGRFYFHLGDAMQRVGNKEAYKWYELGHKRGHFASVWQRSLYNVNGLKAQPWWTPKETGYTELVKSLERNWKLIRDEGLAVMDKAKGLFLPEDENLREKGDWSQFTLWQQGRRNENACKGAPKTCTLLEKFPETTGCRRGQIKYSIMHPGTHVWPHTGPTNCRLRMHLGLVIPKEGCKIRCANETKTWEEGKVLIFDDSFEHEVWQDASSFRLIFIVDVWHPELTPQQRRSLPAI

Tests used:
Test in all cases: log2 fold change, soluble protein after heating vs DMSO (PISA); higher = thermal stabilisation; K562 cells, 10 uM, 30 min; active = over 0.2 and 3.5 SD of the protein, either way, in both replicates (recomputed)
bafetinib = compound: Cc1ccc(NC(=O)c2ccc(CN3CC[C@H](N(C)C)C3)c(C(F)(F)F)c2)cc1Nc1nccc(-c2cncnc2)n1 [bafetinib]
In short: (§1)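 Quantification of soluble protein used TMTpro 16plex LC-MS/MS, with channel sums equalised. Samples were the supernatant after 21,000xg for 90 min of pooled aliquots from K562 cells (2×10^6 cells/mL) treated with 10 μM compound for 30 min, heated for 3 min over 48°C-58°C, and extracted in PBS with 0.5% NP-40 at 4°C. Values, from duplicates, describe thermal stability against control samples on a log2 fold-change scale.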

[1] = compound: Cc1cccc(CC(=O)N2CCc3c2ccc(-c2cn(C)c4ncnc(N)c24)c3F)n1
In short: as §1

nilotinib = compound: Cc1cn(-c2cc(NC(=O)c3ccc(C)c(Nc4nccc(-c5cccnc5)n4)c3)cc(C(F)(F)F)c2)cn1 [nilotinib]
In short: as §1

[2] = compound: Cc1nc(Nc2n[nH]c3c2CN(C(=O)N[C@H](CN(C)C)c2ccccc2)C3(C)C)c2sccc2n1
In short: as §1

dasatinib = compound: Cc1nc(Nc2ncc(C(=O)Nc3c(C)cccc3Cl)s2)cc(N2CCN(CCO)CC2)n1 [dasatinib]
In short: as §1

[3] = compound: Cc1ncc(-c2ccnc(Nc3ccc(S(C)(=O)=O)cc3)n2)n1C(C)C
In short: as §1

[4] = compound: Cn1cc(-c2ccc3c(c2)CCN3C(=O)Cc2cccc(C(F)(F)F)c2)c2c(N)ncnc21
In short: as §1

[5] = compound: Cn1cc(-c2ccc3nnc(C(F)(F)c4ccc5ncccc5c4)n3n2)cn1
In short: as §1

tipifarnib = compound: Cn1cncc1[C@@](N)(c1ccc(Cl)cc1)c1ccc2c(c1)c(-c1cccc(Cl)c1)cc(=O)n2C [tipifarnib]
In short: as §1

mubritinib = compound: FC(F)(F)c1ccc(/C=C/c2nc(COc3ccc(CCCCn4ccnn4)cc3)co2)cc1 [mubritinib]
In short: as §1

Measured: log2 fold change

ATP1A4 (UniProt Q13733)
inactive: bafetinib 0.038 | [1] 0.036 | nilotinib 0.058 | [2] -0.041 | dasatinib 0.076 | [3] 0.033 | [4] 0.028 | [5] -0.041 | tipifarnib -0.039 | mubritinib 0.001

ASPM (UniProt Q8IZT6)
inactive: bafetinib -0.069 | [1] 0.018 | nilotinib 0.047 | [2] -0.056 | dasatinib -0.056 | [3] -0.004 | [4] -0.098 | [5] -0.029 | tipifarnib -0.028 | mubritinib 0.068

ATP5MF (UniProt P56134)
inactive: bafetinib -0.077 | [1] -0.086 | nilotinib 0.007 | [2] 0.018 | dasatinib 0.04 | [3] 0.013 | [4] 0.011 | [5] -0.009 | tipifarnib 0.021 | mubritinib 0.072

ATG4B isoform 2 (UniProt Q9Y4P1)
inactive: bafetinib 0.004 | [1] 0.073 | nilotinib -0.061 | [2] -0.035 | dasatinib -0.242 | [3] -0.041 | [4] 0.022 | [5] 0.13 | tipifarnib -0.402 | mubritinib 0.073

ATP5PF isoform 2 (UniProt P18859)
inactive: bafetinib -0.048 | [1] -0.035 | nilotinib 0.054 | [2] 0.016 | dasatinib 0.088 | [3] -0.08 | [4] 0.11 | [5] 0.154 | tipifarnib 0.049 | mubritinib 0.01

ATE1 isoform 2 (UniProt O95260)
inactive: bafetinib -0.029 | [1] -0.024 | nilotinib 0.017 | [2] -0.024 | dasatinib -0.017 | [3] 0.049 | [4] 0.172 | [5] -0.019 | tipifarnib -0.023 | mubritinib 0.038

ARMC10 (UniProt Q8N2F6)
inactive: bafetinib 0.046 | [1] 0.015 | nilotinib -0.063 | [2] -0.034 | dasatinib -0.125 | [3] -0.012 | [4] -0.052 | [5] -0.115 | tipifarnib 0.001 | mubritinib -0.096

ARL3 (UniProt P36405)
inactive: bafetinib -0.024 | [1] -0.029 | nilotinib 0.011 | [2] 0.006 | dasatinib 0.001 | [3] -0.003 | [4] 0.022 | [5] -0.018 | tipifarnib -0.034 | mubritinib 0.029

ASF1A (UniProt Q9Y294)
inactive: bafetinib -0.083 | [1] 0.048 | nilotinib -0.004 | [2] -0.054 | dasatinib 0 | [3] -0.058 | [4] -0.013 | [5] -0.016 | tipifarnib -0.02 | mubritinib 0.078

ATG7 (UniProt O95352)
inactive: bafetinib -0.007 | [1] 0.031 | nilotinib -0.045 | [2] -0.043 | dasatinib -0.09 | [3] -0.04 | [4] 0.065 | [5] 0.002 | tipifarnib -0.087 | mubritinib 0.04

ASAH1 isoform 2 (UniProt Q13510)
inactive: bafetinib -0.067 | [1] -0.001 | nilotinib 0.017 | [2] 0.017 | dasatinib -0.045 | [3] 0.009 | [4] -0.011 | [5] 0.009 | tipifarnib 0.04 | mubritinib 0.023

ARSB (UniProt P15848)
inactive: bafetinib -0.144 | [1] 0.01 | nilotinib 0.009 | [2] -0.01 | dasatinib -0.017 | [3] 0.017 | [4] 0.051 | [5] 0.02 | tipifarnib 0.027 | mubritinib 0.071

ATP5F1B (UniProt P06576)
inactive: bafetinib -0.03 | [1] -0.044 | nilotinib 0.003 | [2] 0.013 | dasatinib 0.014 | [3] -0.029 | [4] 0.004 | [5] 0.022 | tipifarnib 0.064 | mubritinib 0.029

ASS1 (UniProt P00966)
inactive: bafetinib -0.113 | [1] -0.001 | nilotinib -0.017 | [2] 0.021 | dasatinib 0.013 | [3] -0.017 | [4] 0.093 | [5] 0.06 | tipifarnib 0.005 | mubritinib 0.009

ARRB1 (UniProt P49407)
inactive: bafetinib -0.051 | [1] -0.044 | nilotinib -0.012 | [2] -0.041 | dasatinib 0 | [3] -0.024 | [4] 0.035 | [5] 0.053 | tipifarnib -0.016 | mubritinib 0.029

ARL6IP6 (UniProt Q8N6S5)
inactive: bafetinib -0.096 | [1] 0.024 | nilotinib -0.027 | [2] 0.019 | dasatinib 0.098 | [3] 0.036 | [4] 0.012 | [5] -0.186 | tipifarnib -0.054 | mubritinib 0.04

ATP12A isoform 2 (UniProt P54707)
inactive: bafetinib 0.026 | [1] 0.011 | nilotinib 0.02 | [2] -0.007 | dasatinib 0.022 | [3] 0.007 | [4] 0.066 | [5] 0.04 | tipifarnib 0.016 | mubritinib 0.018

ATM (UniProt Q13315)
inactive: bafetinib -0.078 | [1] 0.035 | nilotinib 0.021 | [2] -0.074 | dasatinib -0.193 | [3] -0.033 | [4] 0.128 | [5] 0.003 | tipifarnib -0.026 | mubritinib 0.002

ATP13A1 (UniProt Q9HD20)
inactive: bafetinib -0.019 | [1] 0.029 | nilotinib 0.02 | [2] 0.014 | dasatinib 0 | [3] -0.004 | [4] 0.012 | [5] 0.001 | tipifarnib -0.089 | mubritinib 0.027

Quoted at random: 3 entries already listed, in no set order.
ASS1 (UniProt P00966)
inactive: bafetinib -0.113 | [1] -0.001 | nilotinib -0.017 | [2] 0.021 | dasatinib 0.013 | [3] -0.017 | [4] 0.093 | [5] 0.06 | tipifarnib 0.005 | mubritinib 0.009

ATP13A1 (UniProt Q9HD20)
inactive: bafetinib -0.019 | [1] 0.029 | nilotinib 0.02 | [2] 0.014 | dasatinib 0 | [3] -0.004 | [4] 0.012 | [5] 0.001 | tipifarnib -0.089 | mubritinib 0.027

ARL6IP6 (UniProt Q8N6S5)
inactive: bafetinib -0.096 | [1] 0.024 | nilotinib -0.027 | [2] 0.019 | dasatinib 0.098 | [3] 0.036 | [4] 0.012 | [5] -0.186 | tipifarnib -0.054 | mubritinib 0.04

Further results:

ATP6V1A (UniProt P38606)
inactive: bafetinib -0.091 | [1] 0.015 | nilotinib -0.003 | [2] -0.013 | dasatinib 0.041 | [3] 0.025 | [4] -0.007 | [5] -0.033 | tipifarnib 0.027 | mubritinib 0.08

ATP5F1A (UniProt P25705)
inactive: bafetinib -0.007 | [1] -0.039 | nilotinib -0.001 | [2] 0.006 | dasatinib 0.058 | [3] -0.036 | [4] 0.018 | [5] -0.019 | tipifarnib 0.06 | mubritinib 0.019

ARPC2 (UniProt O15144)
inactive: bafetinib -0.026 | [1] -0.002 | nilotinib 0.083 | [2] 0.002 | dasatinib 0.054 | [3] 0.027 | [4] -0.055 | [5] -0.006 | tipifarnib -0.015 | mubritinib 0.049

ATP6V1H (UniProt Q9UI12)
inactive: bafetinib -0.057 | [1] 0.037 | nilotinib -0.015 | [2] -0.016 | dasatinib -0.029 | [3] 0.049 | [4] 0.025 | [5] -0.013 | tipifarnib -0.01 | mubritinib 0.098

ASL (UniProt P04424)
inactive: bafetinib -0.038 | [1] 0.008 | nilotinib 0.031 | [2] -0.007 | dasatinib 0.013 | [3] -0.006 | [4] 0.018 | [5] 0.022 | tipifarnib -0.02 | mubritinib 0.066

ATG2A isoform 3 (UniProt Q2TAZ0)
inactive: bafetinib -0.077 | [1] 0.045 | nilotinib -0.015 | [2] -0.021 | dasatinib 0.009 | [3] -0.003 | [4] 0.06 | [5] 0 | tipifarnib -0.014 | mubritinib 0.047

ATG2B (UniProt Q96BY7)
inactive: bafetinib -0.087 | [1] 0 | nilotinib -0.012 | [2] -0.043 | dasatinib -0.002 | [3] 0.027 | [4] 0.005 | [5] 0.021 | tipifarnib -0.062 | mubritinib 0.068

ASPH (UniProt Q12797)
inactive: bafetinib 0.035 | [1] -0.009 | nilotinib 0.018 | [2] 0.047 | dasatinib 0.103 | [3] -0.015 | [4] -0.086 | [5] -0.046 | tipifarnib 0.079 | mubritinib -0.1

ATP6AP1 (UniProt Q15904)
inactive: bafetinib -0.052 | [1] 0.025 | nilotinib 0.024 | [2] -0.041 | dasatinib 0.016 | [3] -0.041 | [4] -0.081 | [5] -0.064 | tipifarnib 0.011 | mubritinib -0.051

ATG16L1 (UniProt Q676U5)
inactive: bafetinib 0.016 | [1] 0.025 | nilotinib 0.003 | [2] -0.007 | dasatinib 0.01 | [3] -0.013 | [4] 0.048 | [5] -0.01 | tipifarnib -0.008 | mubritinib 0.052

ATG9A (UniProt Q7Z3C6)
inactive: bafetinib -0.048 | [1] -0.013 | nilotinib -0.04 | [2] -0.108 | dasatinib -0.046 | [3] -0.014 | [4] 0.06 | [5] -0.022 | tipifarnib 0.168 | mubritinib 0.042

ATP6V0D1 (UniProt P61421)
inactive: bafetinib -0.065 | [1] 0.129 | nilotinib 0.014 | [2] -0.03 | dasatinib -0.009 | [3] -0.076 | [4] -0.033 | [5] 0.136 | tipifarnib 0.016 | mubritinib -0.002

ARSK (UniProt Q6UWY0)
inactive: bafetinib -0.021 | nilotinib 0.057 | [2] -0.073 | [3] -0.045 | [4] -0.078 | mubritinib 0.04

ASNSD1 (UniProt Q9NWL6)
inactive: bafetinib -0.004 | nilotinib -0.134 | [2] -0.139 | [3] 0.027
